Assay results taken from patent US20260116921A1, “PEPTIDE INHIBITORS OF INTERLEUKIN-23 RECEPTOR AND THEIR USE TO TREAT INFLAMMATORY DISEASES” (priority 2018, published 2026).
Part of at least one peptide drawing is inferred or uncertain, most often the ends.

System: NK cells
Test: NK cell based assay (IL-23/IL-18-induced IFNγ, Quantikine ELISA)
Details: human primary NK cells, IL-23 at EC50 to EC75 + IL-18 10 ng/mL, IFNγ after 20 to 24 hours
Protocol: killer (NK) cells, purified from human peripheral blood of healthy donors by negative selection (Miltenyi Biotech, Cat #130-092-657), were cultured in complete media (RPMI 1640 containing […], L-glutamine and penicillin-streptomycin) in the presence of IL-2 (RnD, Cat #202-IL-010/CF) at 25 ng/mL. After 7 days, cells were centrifuged, and resuspended in complete media at IE6 cells/mL. […] After 20 to 24 hours, IFNγ in the supernatant was quantified using Quantikine ELISA (RnD, Cat #DIF50).

For `CC(=O)NCCCC[C@H](NC(=O)[C@](C)(CC(C)C)NC(=O)[C@H](Cc1ccc2ccccc2c1)NC(=O)[C@H](Cc1ccc(OCCN)cc1)NC(=O)[C@H]1NC(=O)[C@H](CCC(N)=O)NC(=O)[C@H](Cc2c[nH]c3c(C)cccc23)NC(=O)[C@H]([C@@H](C)O)NC(=O)[C@H](CC(N)=O)NC(=O)[C@@H](NC(C)=O)C(C)(C)SSC1(C)C)C(=O)N[C@H](Cc1c[nH]cn1)C(=O)NCCC(N)=O` [compound 215], the IC50 was 11 to 100 nM.
